Experimental data published in US20130071417A1 (GOVERNING COUNCIL OF THE UNIVERSITY OF TORONTO, published 2013).
No constants are given. Whether binding was seen depends on the method and setting. For some assays here: Binding seen in cells or lysates may run through a third protein. Some binding calls cover weakened binding; strength is not graded here. For some assays here: Sequences can lack the tags named with a protein.

Protein sequences, listed by entry. Tags and fused reporters are not part of them. Lines headed by an entry give the natural chain unless they say otherwise; changes in a name come on top.
UniProt P04386: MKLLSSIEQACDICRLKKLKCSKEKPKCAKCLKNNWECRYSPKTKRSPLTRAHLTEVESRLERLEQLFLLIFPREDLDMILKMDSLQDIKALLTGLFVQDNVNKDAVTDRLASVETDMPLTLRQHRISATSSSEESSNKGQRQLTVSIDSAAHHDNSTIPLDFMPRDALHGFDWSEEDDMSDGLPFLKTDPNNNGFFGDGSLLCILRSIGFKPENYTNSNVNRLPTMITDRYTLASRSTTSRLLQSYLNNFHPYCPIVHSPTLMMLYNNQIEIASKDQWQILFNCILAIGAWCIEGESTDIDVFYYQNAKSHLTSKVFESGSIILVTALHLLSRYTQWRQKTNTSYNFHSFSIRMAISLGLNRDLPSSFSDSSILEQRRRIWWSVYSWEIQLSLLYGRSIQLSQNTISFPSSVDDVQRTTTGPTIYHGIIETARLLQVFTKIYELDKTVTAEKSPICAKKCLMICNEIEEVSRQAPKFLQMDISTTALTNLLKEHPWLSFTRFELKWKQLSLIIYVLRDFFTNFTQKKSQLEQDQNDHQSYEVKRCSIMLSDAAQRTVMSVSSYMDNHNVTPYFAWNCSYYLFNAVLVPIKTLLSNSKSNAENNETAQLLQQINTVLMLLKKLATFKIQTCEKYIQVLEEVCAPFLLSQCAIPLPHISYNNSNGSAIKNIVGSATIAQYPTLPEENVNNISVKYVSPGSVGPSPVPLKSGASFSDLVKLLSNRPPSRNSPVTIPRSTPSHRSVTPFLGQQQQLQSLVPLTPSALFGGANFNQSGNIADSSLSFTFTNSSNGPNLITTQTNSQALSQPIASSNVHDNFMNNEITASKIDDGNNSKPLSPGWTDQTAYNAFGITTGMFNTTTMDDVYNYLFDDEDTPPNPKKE

How the values were obtained:
[1] = target: untagged rCEA N domain (cleaved rCEA N, residues 1-132) (human) (UniProt P06731); assay: ELISA; untagged rCEA N coated, His-tagged module in solution, anti-His HRP detection
[2] = target: CEA N domain Prey fusion protein (GAL4 activation domain fused to CEA IgV-like N domain) (human) (UniProt P06731); assay: yeast two-hybrid, growth on SD lacking Trp, Leu and His
[3] = target: CEA A3B3 domain Prey fusion construct (GAL4 activation domain fused to CEA IgC-like A3B3 domain) (human) (UniProt P06731); assay: as above
[4] = target: CEA A3B3 domain Prey fusion construct (GAL4 activation domain fused to CEA IgC-like A3B3 domain) (human) (UniProt P06731); assay: yeast two-hybrid, growth on selective medium
[5] = target: T1, His-tagged rCEA N domain (human); assay: pull-down with magnetic Ni-NTA beads (figure legend; modules named in paragraph 102)
T1 sequence: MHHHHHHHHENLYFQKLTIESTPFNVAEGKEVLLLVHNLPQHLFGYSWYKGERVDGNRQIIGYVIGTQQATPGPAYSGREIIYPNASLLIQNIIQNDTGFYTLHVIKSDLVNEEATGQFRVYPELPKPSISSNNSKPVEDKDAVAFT

[6] = target: His-tagged rCEA A3B3 domain (residues 445-656, C-terminal His-tag) (human) (UniProt P06731); assay: as above
[7] = target: His-tagged rCEA A3 domain (human) (UniProt P06731); assay: as above
[8] = target: T1, His-tagged rCEA N domain (human); assay: pull-down with magnetic Ni-NTA beads coated with His-tagged module
[9] = target: His-tagged rCEA A3B3 domain (residues 445-656, C-terminal His-tag) (human) (UniProt P06731); assay: as above
[10] = target: His-tagged rCEA A3 domain (human) (UniProt P06731); assay: as above
[11] = target: His-tagged rCEA A3B3 domain (residues 445-656, C-terminal His-tag) (human) (UniProt P06731); assay: co-immunoprecipitation with Col1 on protein A magnetic beads; 1 µM of each module

Measured: binding

His-tagged rCEA A3 domain (from UniProt P06731 499-591)
binds: [1]

CEA N domain Bait fusion protein (GAL4 DNA-binding domain fused to CEA IgV-like N domain) (from UniProt P04386 1-147; P06731 35-166)
binds: [2] | [3] | [4]

B1: untagged rCEA N domain (cleaved rCEA N, residues 1-132) (other)
chain: KLTIESTPFNVAEGKEVLLLVHNLPQHLFGYSWYKGERVDGNRQIIGYVIGTQQATPGPAYSGREIIYPNASLLIQNIIQNDTGFYTLHVIKSDLVNEEATGQFRVYPELPKPSISSNNSKPVEDKDAVAFT
notes: Made in E. coli, so it has no N-glycans; also called WT rCEA N domain; untagged WT rCEA N domain
binds: [5] | [6] | [7] | [8] | [9] | [10] | [11]
